Reference: article PMC4281351, “Heterogeneity of quaternary structure of glucosamine-6-phosphate deaminase from Giardia lamblia” (Parasitology Research, 2014)
These are yes or no findings as the source states them, for the method shown. Some binding calls cover weakened binding; strength is not graded here. Sequences can lack the tags named with a protein.

Target: G. lamblia GlcN6P deaminase with C-terminal His6 fusion (GlmNagB-HisC) (Giardia lamblia) (UniProt O97439)
Assay: native gel or EMSA; native PAGE, NativePAGE system with Novex 4-16 % Bis-Tris gels; fractions collected from SEC; both purified

binding: binds
B1: G. lamblia GlcN6P deaminase with C-terminal His6 fusion (GlmNagB-HisC) (enzyme, Giardia lamblia, UniProt O97439 1-266, looked up)
chain: MPSIHVSKCADPAIKLAHRIAEVVRSKPNCVLGLATGSTPIPVYQELARLHREEGLDFSQVRTFNLDEYAGLPPTHDQTYRFFMEEHLFSKVNIKPENVHFLNGMASDYEKECERYEQELKAIGPCDVWLLGIGHNGHIAFNEPGSPRDSRTRVVCLTQSTIDANARFFGNDKSKVPTKALSVGIATIMESREILLLATGESKREAVTKSVKGKCETHCPASFLHEHPHCRFYVDMDAGKVVDNTCCQATNQASCCGSTSCHAAKA
notes: glucosamine-6-phosphate deaminase of Giardia lamblia, GPI1 (GN6PI) gene cloned from strain MR4; forward primer from the start ATG, reverse primer adds six His codons after the last codon and then the stop; calculated mass 30.2 kDa with the tag; pETTopo-GlmNagB-HisC; hexaHis stands directly at the C-terminus; source: E. coli BL21(DE3) pLysS, purified (Ni2+-IDA agarose); not shown: His6, …
